Laboratory results: PubChem BioAssay AID1259424 (University of Nebraska Medical Center, 2018)
This is one part, drawn at random, of about 14,000 reagents tested. 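Higher correlation or smaller distance means closer resemblance to KSR1 loss; control wells, including KSR1 knockdowns, recur on many plates.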 Not all columns of the deposit are shown. Not stated in the record: the time to read-out.

Assay: 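Rank knockdowns across the genome by resemblance to the KSR1 depletion profile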 (primary screen)
Cells: human HCT116 colon cancer cells
Knock-down reagent: siRNA pool against human genes, 50 nM
Measured: 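Six signature mRNAs by branched-DNA multiplex assay, scaled to two housekeeping genes and non-targeting median, log2; matched to mean KSR1 knockdown profile by Pearson correlation and euclidean distance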
Direction: mean correlation with KSR1 profile: higher = expression change more like KSR1 knockdown

For ZDHHC6 the deposit lists mean correlation with KSR1 profile -0.162.
CEND1 showed mean correlation with KSR1 profile -0.53.
TYK2 gave mean correlation with KSR1 profile 0.251.
For COX16, the values are mean correlation with KSR1 profile -0.548.
Against LAMA1, the values are mean correlation with KSR1 profile 0.311.
Against AGXT2 the deposit lists mean correlation with KSR1 profile 0.397.
Knock-down of FMO3 came out at: mean correlation with KSR1 profile -0.235.
DAZ2 gave mean correlation with KSR1 profile 0.22.
With knock-down of NKX2-2, the screen gave mean correlation with KSR1 profile -0.219.
TSSK4 showed mean correlation with KSR1 profile 0.616.
Silencing of CHEK2 gave: mean correlation with KSR1 profile 0.746.
CFAP300 scored mean correlation with KSR1 profile 0.368.

Entries above whose gene name starts with C or c (4):
CEND1 | mean correlation with KSR1 profile: -0.53
COX16 | mean correlation with KSR1 profile: -0.548
CHEK2 | mean correlation with KSR1 profile: 0.746
CFAP300 | mean correlation with KSR1 profile: 0.368
